From paper PMC3667844
These are yes or no findings as the source states them, for the method shown. Binding seen in cells or lysates may run through a third protein. Some entries that bind do so weakly or less than the wild type. Sequences can lack the tags named with a protein.

What was measured:
GST Mint1 PTB (human) [1] = biological target: T1, GST Mint1 PTB (human) (UniProt Q02410); assay: pull-down; 5 µg GST or GST Mint1 fusion proteins on glutathione Sepharose 4B beads, MEF dko APP695 AA12 cell lysates (20 x input), 1.5 h at 4°C, pulldown buffer; anti-APP C-terminus blot; only the target purified
T1 sequence: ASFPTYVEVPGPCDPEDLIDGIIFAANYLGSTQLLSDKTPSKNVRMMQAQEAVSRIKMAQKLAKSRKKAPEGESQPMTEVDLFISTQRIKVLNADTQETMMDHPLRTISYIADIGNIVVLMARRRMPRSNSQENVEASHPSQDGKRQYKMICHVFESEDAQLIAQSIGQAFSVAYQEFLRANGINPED

GST Mint1 PTB (human) [2] = biological target: T1, GST Mint1 PTB (human); assay: pull-down; data not shown: GST Mint1 826 PTB or GST Mint1 PTB with lysate from CHO cells transfected with pEGFP APP695, lysed 48 h after transfection; only the target purified

binding (GST Mint1 PTB (human) [1])	binding (GST Mint1 PTB (human) [2])	Substance
binds		APP695 from MEF dKO APP695 cell lines (from UniProt P05067-4 18-695)
	binds	EGFP APP695 from transfected CHO cells (from UniProt P05067-4 18-695)
